Measured values published in paper PMC8910827.
Results are given in words; binding and its absence hold for the method and conditions named. Binding seen in cells or lysates may run through a third protein. Some entries that bind do so weakly or less than the wild type.

Amino acid sequences for entries named in this document (tags omitted).
UniProt Q16665: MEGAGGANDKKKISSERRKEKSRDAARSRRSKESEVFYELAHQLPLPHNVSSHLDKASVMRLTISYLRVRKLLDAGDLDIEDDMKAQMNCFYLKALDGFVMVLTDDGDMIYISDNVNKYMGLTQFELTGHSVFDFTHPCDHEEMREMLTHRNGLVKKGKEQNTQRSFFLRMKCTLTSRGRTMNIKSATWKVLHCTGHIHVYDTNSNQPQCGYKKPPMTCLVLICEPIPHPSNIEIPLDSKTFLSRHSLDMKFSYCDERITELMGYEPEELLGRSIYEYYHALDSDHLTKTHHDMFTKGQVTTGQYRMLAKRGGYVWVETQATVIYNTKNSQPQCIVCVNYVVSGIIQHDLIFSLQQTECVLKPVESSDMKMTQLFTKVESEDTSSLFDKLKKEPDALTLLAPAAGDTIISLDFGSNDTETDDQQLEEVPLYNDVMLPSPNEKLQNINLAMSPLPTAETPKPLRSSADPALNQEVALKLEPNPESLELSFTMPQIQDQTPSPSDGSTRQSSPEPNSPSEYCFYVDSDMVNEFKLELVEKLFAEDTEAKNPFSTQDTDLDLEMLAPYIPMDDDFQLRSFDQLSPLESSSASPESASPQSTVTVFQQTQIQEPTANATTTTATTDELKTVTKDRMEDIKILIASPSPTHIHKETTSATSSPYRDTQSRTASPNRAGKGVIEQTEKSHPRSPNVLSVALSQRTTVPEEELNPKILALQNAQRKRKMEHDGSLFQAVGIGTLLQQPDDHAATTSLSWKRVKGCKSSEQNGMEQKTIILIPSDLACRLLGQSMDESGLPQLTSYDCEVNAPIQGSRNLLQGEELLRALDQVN

Biological target: hypoxia-inducible factor (HIF)-1α (human (endogenous in placenta)) (UniProt Q16665)
Experiment: co-IP; anti-HIF-1α as pull-down antibody (4 µg) on placental lysates of SPT, IUGR and PE pregnancies (n = 3 each); 400 mg total protein lysate as printed, 1000 mg of SPT proteins to equalise the number of HIF complexes; immunoblot for Sprouty2

- binding: binds
B1: Sprouty2 (protein, UniProt O43597 1-315)
chain: MEARAQSGNGSQPLLQTPRDGGRQRGEPDPRDALTQQVHVLSLDQIRAIRNTNEYTEGPTVVPRPGLKPAPRPSTQHKHERLHGLPEHRQPPRLQHSQVHSSARAPLSRSISTVSSGSRSSTRTSTSSSSSEQRLLGSSFSSGPVADGIIRVQPKSELKPGELKPLSKEDLGLHAYRCEDCGKCKCKECTYPRPLPSDWICDKQCLCSAQNVIDYGTCVCCVKGLFYHCSNDDEDNCADNPCSCSQSHCCTRWSAMGVMSLFLPCLWCYLPAKGCLKLCQGCYDRVNRPGCRCKNSNTVCCKVPTVPPRNFEKPT
